According to PMC12175362:
Results are given in words; binding and its absence hold for the method and conditions named. In cells and extracts the contact can be indirect. Some binding calls cover weakened binding; strength is not graded here. Sequences can lack the tags named with a protein.

Protein sequences, listed by entry. Tags and fused reporters are not part of them.
UniProt P06733: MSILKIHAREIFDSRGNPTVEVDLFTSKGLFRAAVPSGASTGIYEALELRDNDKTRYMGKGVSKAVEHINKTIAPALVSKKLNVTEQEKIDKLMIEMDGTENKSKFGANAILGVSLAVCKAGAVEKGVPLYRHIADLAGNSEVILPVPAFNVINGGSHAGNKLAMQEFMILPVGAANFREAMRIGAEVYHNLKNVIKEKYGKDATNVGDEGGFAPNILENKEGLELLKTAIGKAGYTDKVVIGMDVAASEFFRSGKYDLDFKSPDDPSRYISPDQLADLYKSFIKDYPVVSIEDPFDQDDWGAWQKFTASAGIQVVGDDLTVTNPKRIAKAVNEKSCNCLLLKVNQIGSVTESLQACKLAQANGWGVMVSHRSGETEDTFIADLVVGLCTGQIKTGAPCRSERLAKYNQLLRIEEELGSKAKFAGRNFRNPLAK

B1: Flag-DCDC2 (protein, UniProt Q9UHG0 1-476)
chain: MSGSSARSSHLSQPVVKSVLVYRNGDPFYAGRRVVIHEKKVSSFEVFLKEVTGGVQAPFGAVRNIYTPRTGHRIRKLDQIQSGGNYVAGGQEAFKKLNYLDIGEIKKRPMEVVNTEVKPVIHSRINVSARFRKPLQEPCTIFLIANGDLINPASRLLIPRKTLNQWDHVLQMVTEKITLRSGAVHRLYTLEGKLVESGAELENGQFYVAVGRDKFKKLPYSELLFDKSTMRRPFGQKASSLPPIVGSRKSKGSGNDRHSKSTVGSSDNSSPQPLKRKGKKEDVNSEKLTKLKQNVKLKNSQETIPNSDEGIFKAGAERSETRGAAEVQEDEDTQVEVPVDQRPAEIVDEEEDGEKANKDAEQKEDFSGMNGDLEEEGGREATDAPEQVEEILDHSEQQARPARVNGGTDEENGEELQQVNNELQLVLDKERKSQGAGSGQDEADVDPQRPPRPEVKITSPEENENNQQNKDYAAVA
B2: Flag-DCDC2 1–115 (domain or fragment, UniProt Q9UHG0 1-115)
chain: MSGSSARSSHLSQPVVKSVLVYRNGDPFYAGRRVVIHEKKVSSFEVFLKEVTGGVQAPFGAVRNIYTPRTGHRIRKLDQIQSGGNYVAGGQEAFKKLNYLDIGEIKKRPMEVVNT

Biological target: Myc-ENO1 (human) (UniProt P06733)
Assay: co-IP; HEK-293T cells co-transfected with Flag-DCDC2 constructs and Myc-ENO1; immunoprecipitated with anti-Myc antibody

Binder | binding
B1 | binds
B2 | binds
